The whole screen tested about 300,000 compounds, of which about 5,400 (1.8%) were called active. The shares of active, inactive and inconclusive entries below differ from those in the screen. Calls follow the shape of the full dose curve; tested in HEK293 cells. A potency beside an inconclusive call is a rough fit, not a confirmed value.
Assay: qHTS for inhibitors of binding or entry into cells for Marburg Virus
Details: Marburg virus pseudotyped entry inhibition, cell reporter; activity change, negative = inhibition: at 37.8 µM (top of the series) unless noted
% is scaled to controls: 0 for no effect and ±100 for the full control effect; potency is read from the fitted curve at half-maximal effect.

Structure (SMILES) | activity change, negative = inhibition | Potency
NS(=O)(=O)c1ccc(CCNC(=O)c2cccc3ccccc23)cc1 | inactive: 6.73% [at 46.1 µM] | 
CCCCCC(=O)Nc1ccc(C(=O)N/N=C/c2ccc([N+](=O)[O-])cc2)cc1 | inactive: -0.0189% | 
CCC(=NCCC(c1ccccc1)c1ccccc1)c1c(O)n(C)c(=O)n(C)c1=O |  | inconclusive: 0.447 µM [inhibitor, full curve, poor fit]
C=CC[C@]1(C(=O)OC)C=C[C@H](C)[C@@H](c2ccccc2)N1C(=O)C(F)(F)F | inactive: -15.4% [at 14.2 µM] | 
CN(C)c1ccc(/C=N/N=C2/NC(=O)/C(=C/c3ccc([N+](=O)[O-])cc3)S2)cc1 |  | inconclusive: 0.708 µM [inhibitor, full curve]
CCc1ccc(-n2nc(CO)c(C(=O)NCc3cccs3)n2)cc1 |  | inconclusive: 4.47 µM [inhibitor, full curve]
O=C(c1ccc(F)cc1)N1CCN(c2ccccn2)CC1 | inactive: 2.65% [at 46.1 µM] | 
O=C1CCCc2c1[nH]c1ccccc21 |  | inconclusive: 0.0651 µM [inhibitor, full curve, poor fit]
C=CCN1C(=O)/C(=N/n2cnnc2)c2ccccc21 | inactive: -4.31% | 
Cc1ccc(NC(=O)c2ccc(Nc3c([N+](=O)[O-])cc([N+](=O)[O-])cc3[N+](=O)[O-])cc2)cc1 |  | active: 10 µM
CCC(=O)c1cn(CC(=O)NCc2cccnc2)c2ccccc12 | inactive: -3.86% | 
CCOc1ccccc1CN1CCNC(=O)C1CC(=O)N(C)Cc1cnccn1 (stereo not drawn) | inactive: 9.76% | 
COc1ccccc1NC(=O)CNc1ccc(F)c(Cl)c1 | inactive: -5.31% | 
Cc1c(Cl)c([N+](=O)[O-])nn1CCCC(=O)Nc1c(Cl)cccc1Cl |  | inconclusive: 35.5 µM [inhibitor, single point]
O=C(c1ccc(Cl)c(Cl)c1)c1cc(-c2ccccn2)c(N2CCOCC2)s1 |  | inconclusive: 5.62 µM [inhibitor, partial curve, poor fit]
COc1ccc(NC(=O)CN(C)S(=O)(=O)c2ccc3c(c2)c(=O)n(C)c(=O)n3C)cc1 |  | inactive
CS(=O)(=O)c1ccc(C(=O)NCc2ccc(F)cc2)cc1 | inactive: 18.2% [at 46.1 µM] | 
O=C(CCc1nc2ccccc2s1)OCC(=O)c1ccc[nH]1 | inactive: -3.68% | 
C=CCn1c(=NC(=O)c2ccco2)sc2cc(C(=O)OCC)ccc21 |  | inconclusive: 17.8 µM [inhibitor, partial curve, poor fit]
CCN1CCN(c2nc(Nc3cccc(C)c3)nc(N)c2[N+](=O)[O-])CC1 |  | inconclusive: 35.5 µM [inhibitor, partial curve, poor fit]
Cc1cc(=O)oc2c3c(cc(OCC(=O)N[C@@H](CC(C)C)C(=O)O)c12)OC(C)(C)CC3 | inactive: -28.7% | 
CCOC(=O)c1nnn(-c2ccccc2)c1C | inactive: -0.19% | 
CC1CCCCN1C(=O)CSc1c2c(nc3cc(Cl)ccc13)CCCC2 (stereo not drawn) | inactive: 6.57% [at 46.1 µM] | 
Cc1c(C(=O)Nc2ccc(S(=O)(=O)N(C)C3CCN(C)CC3)cc2)oc2ccccc12 | inactive: -102% | 
COc1cccc(-c2nc(CS(=O)(=O)CC(=O)NCCc3ccc(Cl)cc3)c(C)o2)c1 | inactive: -20.7% [at 46.1 µM] | 
CCOC(=O)c1cc(NC(=O)Cc2ccc(S(=O)(=O)N3CCOCC3)s2)cc(C(=O)OCC)c1 |  | inconclusive: 5.01 µM [inhibitor, partial curve, poor fit]

Structure (SMILES) | activity change, negative = inhibition | Potency
CC(=O)Nc1c(C(=O)O)[nH]c2ccccc12 | inactive: 4.01% | 
CCCc1cc(=O)n2[nH]c(C)c(-c3ccccc3)c2n1 | inactive: -6.17% | 
Cc1ccc(OCCn2cc(C(=O)c3ccco3)c3ccccc32)cc1C | inactive: -16% [at 46.1 µM] | 
O=C(CCc1ccccc1)Nc1cccnc1Cl |  | inconclusive: 11.2 µM [activator, partial curve, poor fit]
Cn1c(=O)[nH]c(=O)c2c1nc(Br)n2CC(O)COc1ccccc1 (stereo not drawn) | inactive: 6.58% | 
O=c1oc2c(-c3ccc([N+](=O)[O-])cc3)cc(O)cc2s1 | inactive: -14.4% [at 46.1 µM] | 
CCC(C)Nc1nc(OCC(F)(F)F)nc(OCC(F)(F)F)n1 (stereo not drawn) | inactive: 10.2% | 
CC(=O)OCC(=O)C1(O)CCC2C3CCC4=CC(=O)CCC4(C)C3(F)C(O)CC21C (stereo not drawn) |  | inconclusive: 5.62 µM [activator, single point]
Cc1c(NC(=O)CSC2=C(C#N)C(c3ccccc3F)CC(=O)N2)c(=O)n(-c2ccccc2)n1C (stereo not drawn) |  | inconclusive: 35.5 µM [activator, partial curve, poor fit]
COc1cc(C2/C(=C(/O)c3ccccc3)C(=O)C(=O)N2c2ccccn2)ccc1O (stereo not drawn) | inactive: 13.7% [at 46.1 µM] | 
COc1ccc(C(c2nnnn2CCc2ccccc2)N2CCN(C3CCCC3)CC2)cc1OC (stereo not drawn) | inactive: 2.08% | 
COc1ccc(C(=O)Nc2ccc(C)cn2)c(OC)c1 |  | active: 1.03 µM
O=C(CS(=O)(=O)c1c[nH]c2ccccc12)Nc1ccc2c(c1)OCCO2 | inactive: 11.3% | 
Cc1cccc(N2CCN(c3ccc4cc(S(=O)(=O)N5CCCCC5)ccc4n3)CC2C)c1 (stereo not drawn) | inactive: -3.95% [at 46.1 µM] | 
CCOc1ccccc1C1CC(=O)NC2=C1C(=O)CCC2 (stereo not drawn) |  | inconclusive: 6.31 µM [inhibitor, single point]
CCN1CCN(c2cc(C)c3cc(NC(=O)c4cccc(Cl)c4)ccc3n2)CC1 |  | inconclusive: 35.5 µM [inhibitor, single point]
CN(C)c1cc[n+](CC(=O)Nc2ccccc2C(F)(F)F)cc1 |  | inconclusive: 12.6 µM [activator, single point]
O=C(C1CCC(=O)N(C2CC2)C1)N1CCC(Oc2ccccc2F)CC1 (stereo not drawn) |  | inconclusive: 28.2 µM [activator, partial curve, poor fit]
O=C(NC(=S)Nc1cc([N+](=O)[O-])ccc1Cl)c1ccccc1 |  | inconclusive: 31.6 µM [inhibitor, single point]
CC(C)CN(C(=O)COc1ccc(C(C)(C)C)cc1)C1CCS(=O)(=O)C1 (stereo not drawn) | inactive: 9.68% | 
CC(C)C(=O)Nc1ccc(NC(=S)NC(=O)c2ccccc2F)cc1 | inactive: -15.1% | 
CCC(C)NC(=O)CSc1nc2cc(S(=O)(=O)N3CCOCC3)ccc2n1CC (stereo not drawn) | inactive: 3.25% | 
Cc1ccc(C(=S)NCS(=O)(=O)c2ccc(C)cc2)cc1 |  | inconclusive: 1.16 µM [activator, single point]
COc1cccc(-c2nc3cc(C)ccc3o2)c1 |  | active: 6.31 µM
C[C@H]1CC[C@H]2C(=O)N(Cc3cccc([N+](=O)[O-])c3)C[C@H](O)CN2[C@H]1c1cccc(Br)c1 | inactive: -15.8% [at 14.2 µM] | 
COc1ccc(Nc2nc3ccc(Cl)cc3n3nnnc23)cc1OC | inactive: 3.93% [at 46.1 µM] | 

Structure (SMILES) | activity change, negative = inhibition | Potency
O=[N+]([O-])c1cnccc1Nc1ccc(Cl)cc1 | inactive: -13.9% | 
CCCCc1nc2n[nH]c(N)c2c2c1CSC(C)(C)C2 |  | inconclusive: 0.708 µM [inhibitor, full curve, poor fit]
COc1cc(C2Nc3c(F)cccc3C3C=CCC32)cc(Br)c1OC (stereo not drawn) |  | inconclusive: 3.55 µM [inhibitor, single point]
CC1=NN(c2nc(-c3ccc(C#N)cc3)cs2)C(=O)C1 | inactive: 12.7% [at 46.1 µM] | 
CCOc1cccc(CNCCO)c1OCc1ccc(Cl)cc1 |  | inconclusive: 23.1 µM [inhibitor, single point]
Cn1c(C(O)c2ccccc2)nc(Cl)c1Cl (stereo not drawn) |  | inconclusive: 6.51 µM [activator, single point]
COc1ccc(OCC(=O)NNC(=O)C2CCC2)cc1 | inactive: -2.85% | 
CC1CC(C)(C)NC(=S)N1CCC(=O)NCc1ccc(Cl)cc1 (stereo not drawn) | inactive: 15.5% [at 46.1 µM] | 
CN(C)/C=N/c1nc2ccc3c(c2s1)CCCC3 |  | inconclusive: 0.58 µM [activator, full curve, poor fit]
O=C(CSc1nnc(-c2ccccc2O)o1)N1CCCCC1 |  | inconclusive: 35.5 µM [inhibitor, single point]
COc1ccc(/C=C/C(=O)OCC(=O)N2CCCC2)c(OC)c1 |  | inconclusive: 5.62 µM [activator, single point]
CCOC(=O)c1c(-c2ccc(OC)c(OC)c2)csc1NC(=O)C1CCCO1 (stereo not drawn) |  | inconclusive: 15.8 µM [inhibitor, partial curve, poor fit]
NC(Cc1ccc(Oc2cc(I)c(O)c(I)c2)c(I)c1)C(=O)O (stereo not drawn) |  | inconclusive: 35.3 µM [inhibitor, partial curve, poor fit]
CCOc1ccc(Nc2nc(CC(=O)OC)cc(=O)[nH]2)cc1 | inactive: 3.13% | 
O=C(CNC(=O)c1ccc([N+](=O)[O-])cc1)c1ccccc1 |  | inconclusive: 0.461 µM [activator, single point]
COC(=O)Nc1ccc(S(=O)(=O)NC2CCCCC2)cc1 |  | inconclusive: 2.51 µM [inhibitor, partial curve, poor fit]
CCOC(=O)C1(Cc2ccccc2C(F)(F)F)CCN(CCCn2cccn2)CC1 |  | inconclusive: 14.1 µM [inhibitor, single point]
Cc1ccc(NC(=O)CSc2nc3ccccc3c(=O)n2CCCC(=O)NCC2CCCO2)cc1 (stereo not drawn) | inactive: -13.2% [at 46.1 µM] | 
O=C(/C=C/c1ccccc1)CC(O)(c1ccccc1)C(F)(F)C(F)F (stereo not drawn) |  | inconclusive: 18.3 µM [inhibitor, single point]
CCOC(=O)c1sc(NC(=O)C(C)Sc2nc(-c3ccccc3)cc(C(F)(F)F)n2)c(C(=O)OC)c1C (stereo not drawn) | inactive: 1.57% [at 46.1 µM] | 
O=C1CC(=O)N(Cc2ccccc2)C(=O)N1Cc1ccccc1 |  | inconclusive: 31.6 µM [activator, single point]
O=C(O)c1ccc(Nc2cnc3ccccc3n2)cc1 | inactive: 1.29% | 
c1ccc(CN2CCN(Cc3ccc4ccccc4c3)CC2)cc1 | inactive: -16.6% | 
CCOC(=O)C1CCN(Cc2cn(C)nc2-c2ccc(Oc3ccccc3)cc2)CC1 |  | inconclusive: 1.58 µM [inhibitor, partial curve, poor fit]
CCc1nnc2c3ccccc3nc(Nc3ccccc3OC)n12 | inactive: -3.47% [at 46.1 µM] | 
COc1ccc(Nc2nc(Nc3ccc(OC)cc3)nc(-n3[nH]c(=O)c(C)c3C)n2)cc1 |  | inconclusive: 5.62 µM [inhibitor, partial curve, poor fit]

Looked up by compound from the list above:
Structure (SMILES) | activity change, negative = inhibition | Potency
COc1ccc(OCC(=O)NNC(=O)C2CCC2)cc1 | inactive: -2.85% | 
COc1ccc(NC(=O)CN(C)S(=O)(=O)c2ccc3c(c2)c(=O)n(C)c(=O)n3C)cc1 |  | inactive
CCC(C)NC(=O)CSc1nc2cc(S(=O)(=O)N3CCOCC3)ccc2n1CC (stereo not drawn) | inactive: 3.25% | 
CN(C)c1ccc(/C=N/N=C2/NC(=O)/C(=C/c3ccc([N+](=O)[O-])cc3)S2)cc1 |  | inconclusive: 0.708 µM [inhibitor, full curve]
CCOc1ccccc1C1CC(=O)NC2=C1C(=O)CCC2 (stereo not drawn) |  | inconclusive: 6.31 µM [inhibitor, single point]

Reference: PubChem BioAssay AID540276 (National Center for Advancing Translational Sciences (NCATS), 2011)
